Results: paper PMC4392834
These are yes or no findings as the source states them, for the method shown. In cells and extracts the contact can be indirect. Some results given as binding are weak or reduced against the parent protein; the word gives no strength.

Assays:
Details in all cases: remark: other sources report otherwise
[1] = target: VC-AbdA (Drosophila melanogaster), P29555; test: split reporter; competition: cold (unfused) UAS-TF co-expressed with VC-AbdA and VN-Exd under abdA-Gal4; altered BiFC in the epidermis of stage 10-12 live embryos
[2] = target: VC-AbdA (Drosophila melanogaster), P29555; test: split reporter; Venus BiFC: VC-Hox and VN-TF co-expressed in live Drosophila embryos with the corresponding Hox-Gal4 driver (abdA-Gal4 for AbdA); epidermis, stage 10-12, quantified at stage 10; affected if equal or lower than 50% of wild type, stronger if 120% or more
[3] = target: AbdA-HA (Drosophila melanogaster), P29555; test: co-IP; S2 cells transfected with AbdA-HA, actin-Gal4 and the VN-cofactor; nuclear extracts; ip with anti-HA, VN-cofactor revealed with anti-GFP

Row | binding [1] | binding [2] | Binder | binding [3]
1 | binds | binds | VN-Exd, P40427 1-376 (protein) MEDPNRMLAHTGGMMAPQGYGLSGQDDGQNAGSENEVRKQKDIGEILQQIMSISEQSLDEAQARKHTLNCHRMKPALFSVLCEIKEKTVLSIRNTQEEEPPDPQLMRLDNMLIAEGVAGPEKGGGGAAAASAAAASQGGSLSIDGADNAIEHSDYRAKLAQIRQIYHQELEKYEQACNEFTTHVMNLLREQSRTRPITPKEIERMVQIIHKKFSSIQMQLKQSTCEAVMILRSRFLDARRKRRNFSKQASEILNEYFYSHLSNPYPSEEAKEELARKCGITVSQVSNWFGNKRIRYKKNIGKAQEEANLYAAKKAAGASPYSMAGPPSGTTTPMMSPAPPQDSMGYPMGSGGYDQQQPYDNSMGGYDPNLHQDLSP | –
2 | – | – | VN-Pan, P91943 1-751 (protein) MPHTHSRHGSSGDDLCSTDEVKIFKDEGDREDEKISSENLLVEEKSSLIDLTESEEKGHKISRPDHSPVFNKLDTHAPSFNMGYLVSPYSYANGSPSGLPVTMANKIGLPPFFCHNADPLSTPPPAHCGIPPYQLDPKMGLTRPALYPFAGGQYPYPMLSSDMSQVASWHTPSVYSASSFRTPYPSSLPINTTLASDFPFRFSPSLLPSVHATSHHVINAHSAIVGVSSKQECGVQDPTTNNRYPRNLEAKHTSNAQSNESKETTNDKKKPHIKKPLNAFMLYMKEMRAKVVAECTLKESAAINQILGRRWHELSREEQSKYYEKARQERQLHMELYPGWSARDNYGYVSKKKKRKKDRSTTDSGGNNMKKCRARFGLDQQSQWCKPCRRKKKCIRYMEALNGNGPAEDGSCFDEHGSQLSDDDEDDYDDDKLGGSCGSADETNKIEDEDSESLNQSMPSPGCLSGLSSLQSPSTTMSLASPLNMNANSATNVIFPASSNALLIVGADQPTAQQRPTLVSTSGSSSGSTSSISTTPNTSSTVSPVTCMTGPCLGSSQERAMMLGNRFSHLGMGLSPPVVSTSTSKSEPFFKPHPTVCNNPIFALPSIGNCSLNISSMPNTSRNPIGANPRDINNPLSINQLTKRREYKNVELIEASESKTIVAHAATSIIQHVAVNGYHANHSLLNSNLGHLHHQLNNRTENPNRSEQTMLSVSNHSVNSSECHKESDSQAIVSSNPPNAGSSDNGVISVS | binds
